These are yes or no findings as the source states them, for the method shown. Binding seen in cells or lysates may run through a third protein. Some results given as binding are weak or reduced against the parent protein; the word gives no strength.

The chains behind the UniProt entries cited, without tags or fusion partners.
UniProt P30559: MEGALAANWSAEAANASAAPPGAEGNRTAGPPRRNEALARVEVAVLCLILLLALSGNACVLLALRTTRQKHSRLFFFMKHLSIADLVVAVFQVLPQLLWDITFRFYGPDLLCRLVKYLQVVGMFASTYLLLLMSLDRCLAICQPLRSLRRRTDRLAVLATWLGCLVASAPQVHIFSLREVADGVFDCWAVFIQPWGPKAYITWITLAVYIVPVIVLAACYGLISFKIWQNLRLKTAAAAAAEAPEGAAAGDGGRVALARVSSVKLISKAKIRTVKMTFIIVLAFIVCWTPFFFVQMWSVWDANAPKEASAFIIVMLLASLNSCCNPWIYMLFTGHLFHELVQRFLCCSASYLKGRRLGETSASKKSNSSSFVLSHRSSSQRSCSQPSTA
UniProt P37288: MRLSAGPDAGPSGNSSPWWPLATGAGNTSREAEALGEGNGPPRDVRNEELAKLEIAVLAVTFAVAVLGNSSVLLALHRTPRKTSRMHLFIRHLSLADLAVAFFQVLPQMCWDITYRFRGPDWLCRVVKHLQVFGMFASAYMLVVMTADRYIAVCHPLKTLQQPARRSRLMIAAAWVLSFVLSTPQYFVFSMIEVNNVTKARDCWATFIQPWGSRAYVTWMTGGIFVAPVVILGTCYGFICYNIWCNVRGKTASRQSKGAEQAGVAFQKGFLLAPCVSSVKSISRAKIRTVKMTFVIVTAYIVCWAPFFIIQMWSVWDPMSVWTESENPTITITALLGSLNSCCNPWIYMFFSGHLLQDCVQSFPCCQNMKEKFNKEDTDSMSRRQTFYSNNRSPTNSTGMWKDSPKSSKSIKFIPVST
UniProt P32121: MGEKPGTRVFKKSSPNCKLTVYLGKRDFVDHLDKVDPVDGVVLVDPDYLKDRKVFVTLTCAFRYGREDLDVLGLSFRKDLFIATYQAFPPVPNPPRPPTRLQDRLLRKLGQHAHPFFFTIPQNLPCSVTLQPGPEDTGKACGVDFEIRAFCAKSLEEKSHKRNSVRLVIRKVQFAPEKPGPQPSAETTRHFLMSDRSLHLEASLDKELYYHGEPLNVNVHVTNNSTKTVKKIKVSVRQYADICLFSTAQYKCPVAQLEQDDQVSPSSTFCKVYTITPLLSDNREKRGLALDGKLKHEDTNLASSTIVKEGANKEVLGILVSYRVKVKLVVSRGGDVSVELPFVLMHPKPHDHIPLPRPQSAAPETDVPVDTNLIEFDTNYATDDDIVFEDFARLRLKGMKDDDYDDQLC

In assay [1] the target is EGFP-tagged human oxytocin receptor (human) (UniProt P30559). Nature of the assay: FRET or BRET; living HEK293 cells co-transfected with β-arrestin-1/2-Nluc and EGFP-tagged receptor plasmids (ratio 1:10), furimazine; stimulated with the endogenous ligand (OT at OTR; VP at V1aR, V1bR, V2R): 10 µM time course and concentration-response read 5 min after addition; ligand-induced BRET over HBSS.

Assay [2] has as its target EGFP-tagged human vasopressin V1a receptor (human) (UniProt P37288). The assay is described as above.
Assay [3] shares this target. Nature of the assay: condition: only cells stimulated with I8-arachnotocin (up to 100 µM) instead of VP; FRET or BRET; living HEK293 cells co-transfected with β-arrestin-1/2-Nluc and EGFP-tagged receptor plasmids (ratio 1:10), furimazine; stimulated with I8-arachnotocin: 10 µM time course and concentration-response (up to 100 µM) read 5 min after addition; ligand-induced BRET over HBSS, normalized to recruitment by OT/VP.

In the case of “β-arrestin-2-Nluc (from UniProt P32121 1-409)”, the binding result in assay [1] is listed as “binds”; in assay [2], “binds”; in assay [3], “no binding”.
